Where two headings read alike, the source gives them in different places. These are yes or no findings as the source states them, for the method shown. Some entries that bind do so weakly or less than the wild type. For some of these results: Where a sequence is shown, tags or fusion partners need not be part of it.
T1: SusC^lev (B. thetaiotaomicron) (UniProt Q8A6W3)
T1 sequence: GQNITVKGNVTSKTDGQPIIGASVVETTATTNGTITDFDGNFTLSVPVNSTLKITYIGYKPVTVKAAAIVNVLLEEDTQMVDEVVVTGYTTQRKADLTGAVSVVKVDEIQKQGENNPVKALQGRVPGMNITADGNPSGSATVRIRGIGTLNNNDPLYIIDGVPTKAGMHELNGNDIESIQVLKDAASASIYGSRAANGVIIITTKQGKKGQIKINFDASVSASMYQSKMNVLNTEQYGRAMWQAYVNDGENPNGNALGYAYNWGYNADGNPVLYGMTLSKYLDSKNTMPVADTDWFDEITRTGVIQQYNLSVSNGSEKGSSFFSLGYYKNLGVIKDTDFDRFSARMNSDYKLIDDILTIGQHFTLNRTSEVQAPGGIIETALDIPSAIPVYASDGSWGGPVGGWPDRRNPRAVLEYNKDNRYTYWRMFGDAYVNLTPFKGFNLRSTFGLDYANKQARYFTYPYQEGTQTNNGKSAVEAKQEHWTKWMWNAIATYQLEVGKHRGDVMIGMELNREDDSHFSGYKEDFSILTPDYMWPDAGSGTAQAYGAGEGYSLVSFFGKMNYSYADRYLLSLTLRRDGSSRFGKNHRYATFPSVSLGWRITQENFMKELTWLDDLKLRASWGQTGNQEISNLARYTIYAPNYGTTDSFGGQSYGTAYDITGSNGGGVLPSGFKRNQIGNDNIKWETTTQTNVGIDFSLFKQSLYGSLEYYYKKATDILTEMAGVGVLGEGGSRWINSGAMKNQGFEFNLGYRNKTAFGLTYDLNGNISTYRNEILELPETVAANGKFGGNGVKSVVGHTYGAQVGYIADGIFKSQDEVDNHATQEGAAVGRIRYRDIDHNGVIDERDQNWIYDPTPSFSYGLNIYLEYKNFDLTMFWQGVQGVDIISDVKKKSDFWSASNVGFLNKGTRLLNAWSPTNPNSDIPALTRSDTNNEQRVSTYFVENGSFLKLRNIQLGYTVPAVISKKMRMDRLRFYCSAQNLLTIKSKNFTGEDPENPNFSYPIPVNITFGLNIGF


Columns and labels:
[1] = biological target: T1, SusC^lev (B. thetaiotaomicron); test: cryo-EM structure; apo (substrate-free) levan utilisome, 3 mg/ml in 10 mM HEPES pH 7.5, 100 mM NaCl, 0.03% DDM; ~6 Å classes, 3.5 Å focused C2 refinement without SusD
[2] = biological target: T1, SusC^lev (B. thetaiotaomicron); test: cryo-EM structure; levan utilisome with active GH^lev, incubated with 0.5 mM levan FOS DP~8-12; 10 mM HEPES pH 7.5, 100 mM NaCl, 0.03% DDM; 3.2 Å whole, 2.9 Å SusCD^lev core
[3] = biological target: T1, SusC^lev (B. thetaiotaomicron)
[4] = biological target: T1, SusC^lev (B. thetaiotaomicron); test: cryo-EM structure; minor subset (~10%) of the earlier dataset of LDAO-solubilised SusCD^lev; 3D class average with additional density; crystal structure of GH^lev (7ZNR) fitted as a rigid body
[5] = biological target: T1, SusC^lev (B. thetaiotaomicron); remark: listed apart in the source

Row | Binder | binding [1] | binding [2] | binding [3] | binding [4] | binding [5]
1 | SusD^lev (protein, UniProt Q8A6W4 19-570, acyl-cysteine as the first residue (lipoprotein)) CDDFLDRQVPQGIVTGDQIASPEYVDNLVISAYAIWATGDDINSSFSLWNYDVRSDDCYKGGSGTEDGGVFNALEISKGINTTDWNINDIWKRLYQCITRANTALQSLDQMDEKTYPLKNQRIAEMRFLRGHAHFMLKQLFKKIVIVNDENMEPDAYNELSNTTYTNDEQWQKIADDFQFAYDNLPEVQIEKGRPAQAAAAAYLAKTYLYKAYRQDGADNALTGINEEDLKQVVKYTDPLIMAKGGYGLETDYSMNFLPQYENGAESVWAIQYSINDGTYNGNLNWGMGLTTPQILGCCDFHKPSQNLVNAFKTDSQGKPLFSTYDNENYEVATDNVDPRLFHTVGMPGFPYKYNEGYIIQKNDDWSRSKGLYGYYVSLKENVDPDCDCLKKGSYWASSLNHIVIRYADVLLMRAEALIQLNDGRITDAISLINEVRSRAAGSTMLIFNYKEDYGVNFKVTPYDLKAYAQDEAMKMLKWERRVEFGMESSRFFDLVRWGEAKDVINAYYVTEASRCSIYKNAGFTENKNEYLPVPFEQISASNGNYTQNFGW | binds | binds | binds | – | –
2 | GH^lev (Bt1760; GH32 endo-levanase) (enzyme, UniProt Q8A6W6 21-523, acyl-cysteine as the first residue (lipoprotein)) CSDETDPILTQKNWDGTATYFQSSDEHGFSMYYKPQVGFVGDPMPFYDPVAKDFKVMYLQDYRPNPEATYHPIFGVATKDGATYESLGELISCGGRDEQDAAIGTGGTIYNPADKLYYTFYTGNKFKPSSDQNAQVVMVATSPDFKTWTKNRTFYLKGDTYGYDKNDFRDPFLFQTEDGVYHMLIATRKNGKGHIAEFTSADLKEWESAGTFMTMMWDRFYECPDVFKMGDWWYLIYSEQASFMRKVQYFKGRTLEDLKATTANDAGIWPDNREGMLDSRAFYAGKTASDGTNRYIWGWCPTRAGNDNGNVGDVEPEWAGNLVAQRLIQHEDGTLTLGVPDAIDRKYTSAQEVKVMAKDGNMIESGKTYTLGEGASVIFNRLKVHNKISFTVKTASNTDRFGISFVRGTDSASWYSIHVNADEGKANFEKDGDDAKYLFDNKFNIPADNEYRVTIYSDQSVCVTYINDQLSFTNRIYQMQKNPWSLCCYKGEITVSDVQVSTY | binds | binds | – | binds | –
3 | SusC^lev (natural protein, B. thetaiotaomicron, UniProt Q8A6W3 26-1041, looked up, SusC^lev, the TonB-dependent outer membrane transporter (SusC) of the levan PUL of B. thetaiotaomicron; Two copies stand in the utilisome (SusC2D2 core); written here without a tag; also called levan SusC; source: endogenous, B. thetaiotaomicron grown on fructose; co-purified from detergent-solubilised membranes (LDAO sample; DDM sample: Ni2+ column, SEC)) GQNITVKGNVTSKTDGQPIIGASVVETTATTNGTITDFDGNFTLSVPVNSTLKITYIGYKPVTVKAAAIVNVLLEEDTQMVDEVVVTGYTTQRKADLTGAVSVVKVDEIQKQGENNPVKALQGRVPGMNITADGNPSGSATVRIRGIGTLNNNDPLYIIDGVPTKAGMHELNGNDIESIQVLKDAASASIYGSRAANGVIIITTKQGKKGQIKINFDASVSASMYQSKMNVLNTEQYGRAMWQAYVNDGENPNGNALGYAYNWGYNADGNPVLYGMTLSKYLDSKNTMPVADTDWFDEITRTGVIQQYNLSVSNGSEKGSSFFSLGYYKNLGVIKDTDFDRFSARMNSDYKLIDDILTIGQHFTLNRTSEVQAPGGIIETALDIPSAIPVYASDGSWGGPVGGWPDRRNPRAVLEYNKDNRYTYWRMFGDAYVNLTPFKGFNLRSTFGLDYANKQARYFTYPYQEGTQTNNGKSAVEAKQEHWTKWMWNAIATYQLEVGKHRGDVMIGMELNREDDSHFSGYKEDFSILTPDYMWPDAGSGTAQAYGAGEGYSLVSFFGKMNYSYADRYLLSLTLRRDGSSRFGKNHRYATFPSVSLGWRITQENFMKELTWLDDLKLRASWGQTGNQEISNLARYTIYAPNYGTTDSFGGQSYGTAYDITGSNGGGVLPSGFKRNQIGNDNIKWETTTQTNVGIDFSLFKQSLYGSLEYYYKKATDILTEMAGVGVLGEGGSRWINSGAMKNQGFEFNLGYRNKTAFGLTYDLNGNISTYRNEILELPETVAANGKFGGNGVKSVVGHTYGAQVGYIADGIFKSQDEVDNHATQEGAAVGRIRYRDIDHNGVIDERDQNWIYDPTPSFSYGLNIYLEYKNFDLTMFWQGVQGVDIISDVKKKSDFWSASNVGFLNKGTRLLNAWSPTNPNSDIPALTRSDTNNEQRVSTYFVENGSFLKLRNIQLGYTVPAVISKKMRMDRLRFYCSAQNLLTIKSKNFTGEDPENPNFSYPIPVNITFGLNIGF | – | binds | – | binds | binds
4 | SusD^lev with His6 tag (protein, UniProt Q8A6W4 19-570, acyl-cysteine as the first residue (lipoprotein)) CDDFLDRQVPQGIVTGDQIASPEYVDNLVISAYAIWATGDDINSSFSLWNYDVRSDDCYKGGSGTEDGGVFNALEISKGINTTDWNINDIWKRLYQCITRANTALQSLDQMDEKTYPLKNQRIAEMRFLRGHAHFMLKQLFKKIVIVNDENMEPDAYNELSNTTYTNDEQWQKIADDFQFAYDNLPEVQIEKGRPAQAAAAAYLAKTYLYKAYRQDGADNALTGINEEDLKQVVKYTDPLIMAKGGYGLETDYSMNFLPQYENGAESVWAIQYSINDGTYNGNLNWGMGLTTPQILGCCDFHKPSQNLVNAFKTDSQGKPLFSTYDNENYEVATDNVDPRLFHTVGMPGFPYKYNEGYIIQKNDDWSRSKGLYGYYVSLKENVDPDCDCLKKGSYWASSLNHIVIRYADVLLMRAEALIQLNDGRITDAISLINEVRSRAAGSTMLIFNYKEDYGVNFKVTPYDLKAYAQDEAMKMLKWERRVEFGMESSRFFDLVRWGEAKDVINAYYVTEASRCSIYKNAGFTENKNEYLPVPFEQISASNGNYTQNFGW | – | – | – | binds | –
